Laboratory results taken from PubChem BioAssay AID328 (DTP/NCI, 2004).
The list does not hold the whole screen: it gathers tests that were run many times, whatever their T/C, doses with no T/C, and many T/C values between a quarter and a half above the control. Further doses and runs are listed elsewhere. T/C gives the treated animals as a percentage of the vehicle group. Some doses have a count of surviving animals in place of a T/C: the source holds a T/C of zero for them, seemingly a mark for toxic or unscored doses. Some doses without a T/C left all or most animals alive at the check, yet need not have been tolerated: the source hardly ever lists a survival T/C far under the control, and the zero likely stands for such cases as well. Counts of survivors are from the toxicity check (mostly the fifth day) where no day follows; animals may have died later. Schedules are NCI's codes, taken here to give the interval after Q, in days (D) or hours (H), and the number of doses after X. Where survival is the endpoint, this PubChem deposit counts one and a half times the control or more as active, and values a quarter to a half above the control carry no call in these data; other NCI protocols may use other cut-offs. Some T/C values are followed by the survivors on the day toxicity was checked, most often the fifth; without a count, all were alive then.

Test system: BDF1 mice, P388 leukemia ip, median survival T/C
Assay: NCI In Vivo Anticancer Drug Screen. Data for tumor model P388 Leukemia (intraperitoneal) in B6D2F1 (BDF1) mice
Conditions: T/C endpoint: median survival time, higher T/C = longer survival
Procedure, shortened: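 Compound-treated tumour-bearing mice were compared with vehicle-treated controls. Survival was recorded, and the value is the treated-group measurement divided by the control-group measurement (T/C).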

[1] = dose: 200.0 mg/kg/injection, schedule: Q04DX003 (ip), vehicle: water
[2] = dose: 0.25 mg/kg/injection, schedule: Q01DX009 (ip), vehicle: saline

With `Cc1cc2[nH]c(=O)c(=O)[nH]c2cc1C` the survivor count (dose: 150.0 mg/kg/injection, schedule: Q01DX009 (ip), vehicle: Klucel (hydroxypropylcellulose) (HPC)) was 6 of 6 and the survivor count (dose: 300.0 mg/kg/injection, schedule: Q01DX009 (ip), vehicle: Klucel (hydroxypropylcellulose) (HPC)) was 3 of 6.

For `OCCNCc1ccccc1`, the survivor count [1] was 3 of 6.

With `c1ccc(C2=C([P+](c3ccccc3)(c3ccccc3)c3ccccc3)CCN2)cc1` the T/C (dose: 3.12 mg/kg/injection, schedule: Q01DX009 (ip), vehicle: saline with Tween-80) was 135 % of control and the T/C (dose: 6.25 mg/kg/injection, schedule: Q01DX009 (ip), vehicle: saline with Tween-80) was 140 % of control.

In the case of `c1cnc2[nH]cnc2n1`, the survivor count (dose: 400.0 mg/kg/injection, schedule: Q01DX009 (ip), vehicle: saline) was 5 of 6.

`O=C(O)C1(C(=O)O)CCC2(CCCCC2)CC1` was tested, and the survivor count (dose: 100.0 mg/kg/injection, schedule: Q01DX009 (ip), vehicle: water) was 3 of 6, the survivor count (dose: 100.0 mg/kg/injection, schedule: Q04DX003 (ip), vehicle: water) was 2 of 6 and the survivor count (dose: 200.0 mg/kg/injection, schedule: Q01DX009 (ip), vehicle: water) was 1 of 6. For the same compound, the survivor count [1] was 3 of 6.

With `C(COCCOCC1CO1)OCCOCC1CO1` (centres undefined) the T/C (dose: 100.0 mg/kg/injection, schedule: Q01DX010 (ip), vehicle: saline) was 127 % of control and the survivor count (dose: 800.0 mg/kg/injection, schedule: Q01DX010 (ip), vehicle: saline) was 2 of 6.

With `CS(=O)c1ncc2cnccn12` (centres undefined) the survivor count (dose: 400.0 mg/kg/injection, schedule: Q01DX009 (ip), vehicle: water) was 0 of 6.

With `CC[C@@]1(O)C[C@H](OC2CC(N(C)C)C(O)C(C)O2)c2c(cc3c(c2O)C(=O)c2c(O)ccc(O)c2C3=O)[C@H]1C(=O)OC` (some centres undefined) the T/C (dose: 4.32 mg/kg/injection, schedule: Q04DX003 (ip), vehicle: other) was 128 % of control, the T/C (dose: 7.2 mg/kg/injection, schedule: Q04DX003 (ip), vehicle: other) was 140 % of control and the T/C (dose: 12.0 mg/kg/injection, schedule: Q04DX003 (ip), vehicle: other) was 146 % of control.

With `O=C(COc1ccc(Cl)cc1Cl)Oc1c(Cl)c(Cl)c(Cl)c(Cl)c1Cl` the survivor count (dose: 200.0 mg/kg/injection, schedule: Q04DX003 (ip), vehicle: saline with Tween-80) was 6 of 6.

`CC(=O)[C@H]1CC[C@H]2[C@@H]3C[C@H](C)C4=CC(=O)CC[C@]4(C)[C@@]3(F)[C@@H](O)C[C@]12C` was tested, and the survivor count (dose: 200.0 mg/kg/injection, schedule: Q01DX009 (ip), vehicle: saline with Tween-80) was 5 of 6 and the survivor count (dose: 400.0 mg/kg/injection, schedule: Q01DX009 (ip), vehicle: saline with Tween-80) was 6 of 6.

In the case of `CCC[N+](C)(C)CCCCOCCCC[N+](C)(C)CCC`, the survivor count (dose: 25.0 mg/kg/injection, schedule: Q04DX003 (ip), vehicle: saline) was 0 of 6.

In the case of `ClC1C2c3ccccc3C(C1Cl)[n+]1ccccc12` (centres undefined), the survivor count (dose: 35.0 mg/kg/injection, schedule: Q01DX009 (ip), vehicle: Klucel (hydroxypropylcellulose) (HPC)) was 1 of 6 and the survivor count (dose: 50.0 mg/kg/injection, schedule: Q04DX003 (ip), vehicle: Klucel (hydroxypropylcellulose) (HPC)) was 5 of 6.

In the case of `O=S(=O)(OCCF)c1cc(Cl)c(Cl)cc1Cl`, the survivor count (dose: 100.0 mg/kg/injection, schedule: Q01DX005 (ip), vehicle: Klucel (hydroxypropylcellulose) (HPC)) was 3 of 6 and the survivor count (dose: 200.0 mg/kg/injection, schedule: Q01DX005 (ip), vehicle: Klucel (hydroxypropylcellulose) (HPC)) was 1 of 6.

`CN1C(=O)C23CC4=CC=CC(O)C4N2C(=O)C1(CO)SS3` (centres undefined) was tested, and the survivor count (dose: 1.5 mg/kg/injection, schedule: Q01DX009 (ip), vehicle: saline with Tween-80) was 2 of 3 and the survivor count (dose: 3.0 mg/kg/injection, schedule: Q01DX009 (ip), vehicle: saline with Tween-80) was 3 of 3.

`COC1=C(N2CC2)C(=O)C(OC)=C(N2CC2)C1=O` was tested, and the T/C [2] was 148 % of control, the T/C (dose: 1.2 mg/kg/injection, schedule: Q04DX003 (ip), vehicle: saline with Tween-80) was 133 % of control and the survivor count (dose: 4.0 mg/kg/injection, schedule: Q01DX009 (ip), vehicle: saline with Tween-80) was 6 of 6. For the same compound, the survivor count (dose: 8.0 mg/kg/injection, schedule: Q01DX009 (ip), vehicle: saline) was 4 of 6.

In the case of `O=C(NCc1cc(CNC(=O)c2cccc(O)c2O)cc(CNC(=O)c2cccc(O)c2O)c1)c1cccc(O)c1O`, the survivor count (dose: 12.5 mg/kg/injection, schedule: Q01DX005 (ip), vehicle: saline with Tween-80) was 2 of 5, the survivor count (dose: 25.0 mg/kg/injection, schedule: Q01DX005 (ip), vehicle: saline with Tween-80) was 2 of 5 and the survivor count (dose: 50.0 mg/kg/injection, schedule: Q01DX005 (ip), vehicle: saline with Tween-80) was 3 of 5.

In the case of `O=C(Nc1ccc(C(=O)Nc2cc(S(=O)(=O)O)cc3cccc(S(=O)(=O)O)c23)cc1)Nc1ccc(C(=O)Nc2cc(S(=O)(=O)O)cc3cccc(S(=O)(=O)O)c23)cc1`, the survivor count (dose: 200.0 mg/kg/injection, schedule: Q01DX009 (ip), vehicle: Klucel (hydroxypropylcellulose) (HPC)) was 2 of 6.

With `CC[C@@]1(O)C[C@H](OC2CC(N(C)C)C(OC3CC(O)C(OC4CCC(=O)C(C)O4)C(C)O3)C(C)O2)c2c(cc3c(c2O)C(=O)c2c(O)cccc2C3=O)[C@H]1C(=O)OC` (some centres undefined) the T/C [2] was 134 % of control, the T/C (dose: 0.5 mg/kg/injection, schedule: Q01DX009 (ip), vehicle: water) was 125 % of control and the T/C (dose: 1.0 mg/kg/injection, schedule: Q01DX009 (ip), vehicle: saline) was 147 % of control [5 of 6 alive]. The T/C (dose: 1.0 mg/kg/injection, schedule: Q01DX009 (ip), vehicle: water) was 142 % of control, the T/C (dose: 2.0 mg/kg/injection, schedule: Q01DX009 (ip), vehicle: saline) was 138 % of control and the survivor count (dose: 8.0 mg/kg/injection, schedule: Q01DX009 (ip), vehicle: water) was 6 of 6. For the same compound, the survivor count (dose: 15.0 mg/kg/injection, schedule: Q04DX003 (ip), vehicle: water) was 8 of 8, the T/C (dose: 18.8 mg/kg/injection, schedule: Q04DX003 (ip), vehicle: water) was 125 % of control and the survivor count (dose: 37.5 mg/kg/injection, schedule: Q04DX003 (ip), vehicle: water) was 2 of 6. For the same compound, the survivor count (dose: 75.0 mg/kg/injection, schedule: Q04DX003 (ip), vehicle: water) was 0 of 6.

`C=C1CC(OC(C)=O)C2C(OC(=O)C2(C)OC(=O)/C(C)=C\C)C2C(C)=CC(=O)C12` (centres undefined) was tested, and the survivor count (dose: 16.0 mg/kg/injection, schedule: Q01DX009 (ip), vehicle: Klucel (hydroxypropylcellulose) (HPC)) was 6 of 6 and the survivor count (dose: 32.0 mg/kg/injection, schedule: Q01DX009 (ip), vehicle: Klucel (hydroxypropylcellulose) (HPC)) was 6 of 6.

`O=c1oc2c(CN3CCCC3)c(O)ccc2c2c1CCCC2` was tested, and the survivor count (dose: 64.0 mg/kg/injection, schedule: Q01DX009 (ip), vehicle: Klucel (hydroxypropylcellulose) (HPC)) was 1 of 6, the survivor count (dose: 128.0 mg/kg/injection, schedule: Q01DX009 (ip), vehicle: Klucel (hydroxypropylcellulose) (HPC)) was 0 of 6 and the survivor count (dose: 256.0 mg/kg/injection, schedule: Q01DX009 (ip), vehicle: Klucel (hydroxypropylcellulose) (HPC)) was 0 of 6.

`CC(=O)CC(C)=O.CC(=O)CC(C)=O.[CH3][Sn][CH3]` was tested, and the T/C (dose: 100.0 mg/kg/injection, schedule: Q01DX001 (ip), vehicle: Klucel (hydroxypropylcellulose) (HPC)) was 132 % of control.

`CCOP(=O)(OCC)SCSC(C)C` was tested, and the survivor count (dose: 0.39 mg/kg/injection, schedule: Q01DX009 (ip), vehicle: Klucel (hydroxypropylcellulose) (HPC)) was 0 of 6, the survivor count (dose: 0.78 mg/kg/injection, schedule: Q01DX009 (ip), vehicle: Klucel (hydroxypropylcellulose) (HPC)) was 0 of 6 and the survivor count (dose: 6.25 mg/kg/injection, schedule: Q01DX009 (ip), vehicle: Klucel (hydroxypropylcellulose) (HPC)) was 2 of 6. For the same compound, the survivor count (dose: 12.5 mg/kg/injection, schedule: Q01DX009 (ip), vehicle: Klucel (hydroxypropylcellulose) (HPC)) was 0 of 6.
